Test results as given in article PMC5103075, “An immunostimulatory dual-functional nanocarrier that improves cancer immunochemotherapy” (Nature Communications, 2016).
Converted amounts (≈) assume the structure as drawn.

Test system: PC3 cells
Test: MTT cytotoxicity in PC3 cells
Type: cell-based, human
Details: PC3, 72 h, means±s.e.m.
Description: 4T1.2 or PC3 cells at 2,000 cells/well were seeded in 96-well plates, respectively. […] After 3 days of incubation, 20 μl of 3-(4, 5-dimethylthiazol-2-yl)-2,5-diphenyltetrazoliumbromide (MTT) in DPBS (5 mg ml^−1) was added to each well and cells were further incubated for 2 h. Medium was removed and MTT formazan crystals were solubilized by 100 μl of DMSO per well. Absorbance of each well was measured with a microplate reader at wavelength of 550 nm. Untreated wells were used as controls. Cell viability was calculated as ((ODtreated−ODblank)/(ODcontrol−ODblank) × 100%).

COc1cccc2c1C(=O)c1c(O)c3c(c(O)c1C2=O)C[C@@](O)(C(=O)CO)C[C@@H]3O[C@H]1C[C@H](N)[C@H](O)[C@H](C)O1 [DOX, doxorubicin]
IC50: 0.54804 ± 0.05893 µg/mL (≈ 1.01 µM)
